We go through one molecule from article PMC3118390, “PKC isoforms interact with and phosphorylate DNMT1” (BMC Biology, 2011).

Protein sequences, listed by entry. Tags and fused reporters are not part of them.
UniProt P26358: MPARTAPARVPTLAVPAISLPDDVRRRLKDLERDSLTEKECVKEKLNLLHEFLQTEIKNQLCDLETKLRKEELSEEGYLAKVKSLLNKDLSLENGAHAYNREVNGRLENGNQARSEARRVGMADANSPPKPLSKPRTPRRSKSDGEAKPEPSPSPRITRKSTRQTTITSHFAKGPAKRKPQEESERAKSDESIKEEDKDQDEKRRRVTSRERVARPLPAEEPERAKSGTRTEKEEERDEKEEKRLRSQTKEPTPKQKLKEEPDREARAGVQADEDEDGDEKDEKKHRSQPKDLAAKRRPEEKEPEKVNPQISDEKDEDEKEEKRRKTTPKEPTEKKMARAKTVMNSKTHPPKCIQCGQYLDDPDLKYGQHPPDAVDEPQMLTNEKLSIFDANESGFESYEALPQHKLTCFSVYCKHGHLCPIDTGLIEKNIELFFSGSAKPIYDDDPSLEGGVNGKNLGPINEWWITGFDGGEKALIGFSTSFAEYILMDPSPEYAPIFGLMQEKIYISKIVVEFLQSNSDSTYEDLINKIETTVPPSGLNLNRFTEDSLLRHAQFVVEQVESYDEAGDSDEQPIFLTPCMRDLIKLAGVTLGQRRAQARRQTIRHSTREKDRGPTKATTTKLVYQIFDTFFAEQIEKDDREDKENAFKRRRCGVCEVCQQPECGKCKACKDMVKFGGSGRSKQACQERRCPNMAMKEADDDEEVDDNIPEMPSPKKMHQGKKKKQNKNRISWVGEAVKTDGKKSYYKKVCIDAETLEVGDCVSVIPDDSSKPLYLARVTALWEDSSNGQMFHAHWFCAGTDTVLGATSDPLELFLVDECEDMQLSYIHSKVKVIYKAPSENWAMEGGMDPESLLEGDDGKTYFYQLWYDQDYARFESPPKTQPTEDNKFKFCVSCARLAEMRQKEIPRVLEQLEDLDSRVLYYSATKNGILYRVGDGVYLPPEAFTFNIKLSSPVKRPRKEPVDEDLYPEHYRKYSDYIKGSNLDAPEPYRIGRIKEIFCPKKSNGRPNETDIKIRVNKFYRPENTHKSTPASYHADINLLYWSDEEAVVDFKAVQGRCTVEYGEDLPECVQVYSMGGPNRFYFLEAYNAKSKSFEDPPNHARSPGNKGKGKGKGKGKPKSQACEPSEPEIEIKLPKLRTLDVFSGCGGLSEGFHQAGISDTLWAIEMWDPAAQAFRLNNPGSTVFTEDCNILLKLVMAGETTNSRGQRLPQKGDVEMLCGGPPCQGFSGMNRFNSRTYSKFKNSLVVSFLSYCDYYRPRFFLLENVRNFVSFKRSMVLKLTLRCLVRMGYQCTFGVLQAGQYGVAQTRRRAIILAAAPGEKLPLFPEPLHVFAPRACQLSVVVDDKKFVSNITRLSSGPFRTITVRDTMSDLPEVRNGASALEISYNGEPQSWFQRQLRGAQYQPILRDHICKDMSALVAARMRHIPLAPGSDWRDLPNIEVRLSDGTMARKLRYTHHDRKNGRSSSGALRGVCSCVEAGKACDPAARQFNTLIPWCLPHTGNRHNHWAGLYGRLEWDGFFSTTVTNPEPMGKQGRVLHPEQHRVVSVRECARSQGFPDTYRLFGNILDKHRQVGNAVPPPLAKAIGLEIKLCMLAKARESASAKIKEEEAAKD

No constants are given. Whether binding was seen depends on the method and setting. In cells and extracts the contact can be indirect. Some results given as binding are weak or reduced against the parent protein; the word gives no strength.

This assay deals with endogenous DNMT1 (human (endogenous in HEK-293)) (UniProt P26358). Kind of assay: co-IP; HEK-293 nuclear proteins; anti-DNMT1 prebound to protein G beads, four hours at 4°C; PKCζ detected in the immunoprecipitate by kinase activity with (γ-32P)ATP and a PKCζ specific substrate.

B1: endogenous PKCζ (enzyme, UniProt Q05513 1-592)
chain: MPSRTGPKMEGSGGRVRLKAHYGGDIFITSVDAATTFEELCEEVRDMCRLHQQHPLTLKWVDSEGDPCTVSSQMELEEAFRLARQCRDEGLIIHVFPSTPEQPGLPCPGEDKSIYRRGARRWRKLYRANGHLFQAKRFNRRAYCGQCSERIWGLARQGYRCINCKLLVHKRCHGLVPLTCRKHMDSVMPSQEPPVDDKNEDADLPSEETDGIAYISSSRKHDSIKDDSEDLKPVIDGMDGIKISQGLGLQDFDLIRVIGRGSYAKVLLVRLKKNDQIYAMKVVKKELVHDDEDIDWVQTEKHVFEQASSNPFLVGLHSCFQTTSRLFLVIEYVNGGDLMFHMQRQRKLPEEHARFYAAEICIALNFLHERGIIYRDLKLDNVLLDADGHIKLTDYGMCKEGLGPGDTTSTFCGTPNYIAPEILRGEEYGFSVDWWALGVLMFEMMAGRSPFDIITDNPDMNTEDYLFQVILEKPIRIPRFLSVKASHVLKGFLNKDPKERLGCRPQTGFSDIKSHAFFRSIDWDLLEKKQALPPFQPQITDDYGLDNFDTQFTSEPVQLTPDDEDAIKRIDQSEFEGFEYINPLLLSTEESV
B1: the binding result was “binds”.
